This is one part of the list.
Assays:
Assay in all cases: glycan array binding signal (z-score within array); higher = stronger binding
Conditions in all cases: glycan notation: IUPAC condensed, linker removed
[1] = target: Glc(b1-6)Glc
How it was run: (§1)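 Glycan array binding is given as a within-array Z-score, which can be read as non-binding when negative. The arrays, 3228 of them, came from the Consortium for Functional Glycomics database and were retained only where the protein sequence was available. Z-scores were averaged across arrays of the same protein sequence at different concentrations or buffers and across linkers.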

[2] = target: GlcA(b1-3)Gal
How it was run: as §1

[3] = target: GlcA(b1-3)GlcNAc
How it was run: as §1

[4] = target: GlcA(b1-6)Gal
How it was run: as §1

[5] = target: GlcA3S(b1-3)Gal(b1-4)GlcNAc(b1-2)Man
How it was run: as §1

[6] = target: GlcA3S(b1-3)Gal(b1-4)GlcNAc(b1-3)Gal(b1-4)Glc
How it was run: as §1

[7] = target: GlcNAc(a1-3)Gal(b1-4)GlcNAc
How it was run: as §1

[8] = target: GlcNAc(a1-4)Gal(b1-3)GlcNAc
How it was run: as §1

[9] = target: GlcNAc(a1-4)Gal(b1-4)GalNAc
How it was run: as §1

[10] = target: GlcNAc(a1-4)Gal(b1-4)GlcNAc
How it was run: as §1

[11] = target: GlcNAc(a1-4)Gal(b1-4)GlcNAc(b1-3)Gal(b1-4)Glc
How it was run: as §1

[12] = target: GlcNAc(a1-4)Gal(b1-4)GlcNAc(b1-3)Gal(b1-4)GlcNAc
How it was run: as §1

[13] = target: GlcNAc(a1-4)Gal(b1-4)GlcNAc(b1-3)Gal(b1-4)GlcNAc(b1-3)Gal(b1-4)GlcNAc
How it was run: as §1

[14] = target: GlcNAc(a1-4)Gal(b1-4)GlcNAc(b1-3)Gal(b1-4)[Fuc(a1-3)]GlcNAc(b1-3)Gal(b1-4)[Fuc(a1-3)]GlcNAc
How it was run: as §1

[15] = target: GlcNAc(a1-6)Gal(b1-4)GlcNAc
How it was run: as §1

[16] = target: GlcNAc(b1-2)Gal(b1-3)GalNAc
How it was run: as §1

[17] = target: GlcNAc(b1-2)Man(a1-3)[GlcNAc(b1-2)Man(a1-6)]Man(b1-4)GlcNAc(b1-4)GlcNAc
How it was run: as §1

[18] = target: GlcNAc(b1-2)Man(a1-3)[GlcNAc(b1-2)Man(a1-6)]Man(b1-4)GlcNAc(b1-4)[Fuc(a1-6)]GlcNAc
How it was run: as §1

[19] = target: GlcNAc(b1-2)Man(a1-3)[GlcNAc(b1-4)][GlcNAc(b1-2)Man(a1-6)]Man(b1-4)GlcNAc(b1-4)GlcNAc
How it was run: as §1

[20] = target: GlcNAc(b1-2)Man(a1-3)[GlcNAc(b1-4)][GlcNAc(b1-2)Man(a1-6)]Man(b1-4)GlcNAc(b1-4)[Fuc(a1-6)]GlcNAc
How it was run: as §1

[21] = target: GlcNAc(b1-2)[GlcNAc(b1-4)]Man(a1-3)[GlcNAc(b1-2)Man(a1-6)]Man(b1-4)GlcNAc(b1-4)GlcNAc
How it was run: as §1

[22] = target: GlcNAc(b1-2)[GlcNAc(b1-4)]Man(a1-3)[GlcNAc(b1-4)][GlcNAc(b1-2)Man(a1-6)]Man(b1-4)GlcNAc(b1-4)GlcNAc
How it was run: as §1

[23] = target: GlcNAc(b1-2)[GlcNAc(b1-4)]Man(a1-3)[GlcNAc(b1-4)][GlcNAc(b1-2)[GlcNAc(b1-6)]Man(a1-6)]Man(b1-4)GlcNAc(b1-4)GlcNAc
How it was run: as §1

[24] = target: GlcNAc(b1-2)[GlcNAc(b1-4)]Man(a1-3)[GlcNAc(b1-4)][GlcNAc(b1-2)[GlcNAc(b1-6)]Man(a1-6)]Man(b1-4)GlcNAc(b1-4)[Fuc(a1-6)]GlcNAc
How it was run: as §1

[25] = target: GlcNAc(b1-2)[GlcNAc(b1-6)]Man(a1-6)[GlcNAc(b1-2)Man(a1-3)]Man(b1-4)GlcNAc(b1-4)GlcNAc
How it was run: as §1

[26] = target: GlcNAc(b1-2)[GlcNAc(b1-6)]Man(a1-6)[GlcNAc(b1-2)Man(a1-3)]Man(b1-4)GlcNAc(b1-4)[Fuc(a1-6)]GlcNAc
How it was run: as §1

[27] = target: GlcNAc(b1-2)[GlcNAc(b1-6)]Man(a1-6)[GlcNAc(b1-4)][GlcNAc(b1-2)Man(a1-3)]Man(b1-4)GlcNAc(b1-4)GlcNAc
How it was run: as §1

[28] = target: GlcNAc(b1-3)Fuc
How it was run: as §1

[29] = target: GlcNAc(b1-3)Gal
How it was run: as §1

[30] = target: GlcNAc(b1-3)Gal(b1-3)GalNAc
How it was run: as §1

[31] = target: GlcNAc(b1-3)Gal(b1-4)Glc
How it was run: as §1

[32] = target: GlcNAc(b1-3)Gal(b1-4)GlcNAc
How it was run: as §1

[33] = target: GlcNAc(b1-3)Gal(b1-4)GlcNAc(b1-2)Man(a1-3)[GlcNAc(b1-3)Gal(b1-4)GlcNAc(b1-2)Man(a1-6)]Man(b1-4)GlcNAc(b1-4)GlcNAc
How it was run: as §1

[34] = target: GlcNAc(b1-3)Gal(b1-4)GlcNAc(b1-2)Man(a1-3)[GlcNAc(b1-3)Gal(b1-4)GlcNAc(b1-2)Man(a1-6)]Man(b1-4)GlcNAc(b1-4)[Fuc(a1-6)]GlcNAc
How it was run: as §1

[35] = target: GlcNAc(b1-3)Gal(b1-4)GlcNAc(b1-2)[GlcNAc(b1-3)Gal(b1-4)GlcNAc(b1-6)]Man(a1-6)[GlcNAc(b1-3)Gal(b1-4)GlcNAc(b1-2)Man(a1-3)]Man(b1-4)GlcNAc(b1-4)GlcNAc
How it was run: as §1

[36] = target: GlcNAc(b1-3)Gal(b1-4)GlcNAc(b1-3)Gal(b1-4)GlcNAc
How it was run: as §1

[37] = target: GlcNAc(b1-3)Gal(b1-4)GlcNAc(b1-3)Gal(b1-4)GlcNAc(b1-2)Man(a1-3)[GlcNAc(b1-3)Gal(b1-4)GlcNAc(b1-3)Gal(b1-4)GlcNAc(b1-2)Man(a1-6)]Man(b1-4)GlcNAc(b1-4)GlcNAc
How it was run: as §1

[38] = target: GlcNAc(b1-3)Gal(b1-4)GlcNAc(b1-3)Gal(b1-4)GlcNAc(b1-2)Man(a1-3)[GlcNAc(b1-3)Gal(b1-4)GlcNAc(b1-3)Gal(b1-4)GlcNAc(b1-2)Man(a1-6)]Man(b1-4)GlcNAc(b1-4)[Fuc(a1-6)]GlcNAc
How it was run: as §1

[39] = target: GlcNAc(b1-3)Gal(b1-4)GlcNAc(b1-3)Gal(b1-4)GlcNAc(b1-2)[GlcNAc(b1-3)Gal(b1-4)GlcNAc(b1-3)Gal(b1-4)GlcNAc(b1-6)]Man(a1-6)[GlcNAc(b1-3)Gal(b1-4)GlcNAc(b1-3)Gal(b1-4)GlcNAc(b1-2)Man(a1-3)]Man(b1-4)GlcNAc(b1-4)[Fuc(a1-6)]GlcNAc
How it was run: as §1

[40] = target: GlcNAc(b1-3)Gal(b1-4)GlcNAc(b1-3)Gal(b1-4)GlcNAc(b1-3)Gal(b1-4)GlcNAc(b1-2)Man(a1-3)[GlcNAc(b1-3)Gal(b1-4)GlcNAc(b1-3)Gal(b1-4)GlcNAc(b1-3)Gal(b1-4)GlcNAc(b1-2)Man(a1-6)]Man(b1-4)GlcNAc(b1-4)GlcNAc
How it was run: as §1

[41] = target: GlcNAc(b1-3)Gal(b1-4)GlcNAc(b1-3)Gal(b1-4)GlcNAc(b1-3)Gal(b1-4)GlcNAc(b1-2)Man(a1-3)[GlcNAc(b1-3)Gal(b1-4)GlcNAc(b1-3)Gal(b1-4)GlcNAc(b1-3)Gal(b1-4)GlcNAc(b1-2)Man(a1-6)]Man(b1-4)GlcNAc(b1-4)[Fuc(a1-6)]GlcNAc
How it was run: as §1

[42] = target: GlcNAc(b1-3)Gal(b1-4)GlcNAc(b1-3)Gal(b1-4)GlcNAc(b1-3)Gal(b1-4)GlcNAc(b1-2)[GlcNAc(b1-3)Gal(b1-4)GlcNAc(b1-3)Gal(b1-4)GlcNAc(b1-3)Gal(b1-4)GlcNAc(b1-6)]Man(a1-6)[GlcNAc(b1-3)Gal(b1-4)GlcNAc(b1-3)Gal(b1-4)GlcNAc(b1-3)Gal(b1-4)GlcNAc(b1-2)Man(a1-3)]Man(b1-4)GlcNAc(b1-4)[Fuc(a1-6)]GlcNAc
How it was run: as §1

[43] = target: GlcNAc(b1-3)Gal(b1-4)GlcNAc(b1-3)Gal(b1-4)GlcNAc(b1-3)Gal(b1-4)GlcNAc(b1-3)Gal(b1-4)GlcNAc(b1-2)Man(a1-3)[GlcNAc(b1-3)Gal(b1-4)GlcNAc(b1-3)Gal(b1-4)GlcNAc(b1-3)Gal(b1-4)GlcNAc(b1-3)Gal(b1-4)GlcNAc(b1-2)Man(a1-6)]Man(b1-4)GlcNAc(b1-4)GlcNAc
How it was run: as §1

[44] = target: GlcNAc(b1-3)Gal(b1-4)GlcNAc(b1-3)Gal(b1-4)GlcNAc(b1-3)Gal(b1-4)GlcNAc(b1-3)Gal(b1-4)GlcNAc(b1-2)Man(a1-3)[GlcNAc(b1-3)Gal(b1-4)GlcNAc(b1-3)Gal(b1-4)GlcNAc(b1-3)Gal(b1-4)GlcNAc(b1-3)Gal(b1-4)GlcNAc(b1-2)Man(a1-6)]Man(b1-4)GlcNAc(b1-4)[Fuc(a1-6)]GlcNAc
How it was run: as §1

[45] = target: GlcNAc(b1-3)Gal(b1-4)GlcNAc(b1-3)Gal(b1-4)GlcNAc(b1-3)Gal(b1-4)GlcNAc(b1-3)Gal(b1-4)GlcNAc(b1-2)[GlcNAc(b1-3)Gal(b1-4)GlcNAc(b1-3)Gal(b1-4)GlcNAc(b1-3)Gal(b1-4)GlcNAc(b1-3)Gal(b1-4)GlcNAc(b1-6)]Man(a1-6)[GlcNAc(b1-3)Gal(b1-4)GlcNAc(b1-3)Gal(b1-4)GlcNAc(b1-3)Gal(b1-4)GlcNAc(b1-3)Gal(b1-4)GlcNAc(b1-2)Man(a1-3)]Man(b1-4)GlcNAc(b1-4)[Fuc(a1-6)]GlcNAc
How it was run: as §1

B1: Gs78B-bfa-542-29-542 (Bacteroides fragilis) (protein)
chain: SEDINRNPLLPTKEDEKMDGVIYGAYLPNLEKSVIPIGTASESTEPVNRYQIGVNLAGDAWAGYMSPRDNKFNGSKNFTNYFMYENWVNYVYSFMVTDVYSPWMQIKRISQDEGTRNDEIYALAQIIKIAALHRTTDMFGPIPYSQVGKGSFKVAYDSQESVYRSFLKELEEAVQTLDDYSNKSKEVLPAFDIVYNGDVNKWMRFANSLMLRLAIRVRFADAGLAKEYAEKAVKHPAGLINSKELAAQMGKGAGLQMKNPLKVINEEYNDTRMGATIYSYLAGYNDARAAVYFVKNNGFKAVRCGIAKSGDAYNGFTRPNVHEDDPLYWMKASEVCFLKAEGALAGFDMGGSAGDFYNAGIRMSFSENGLDNSSAETYLKDSTRKPANYTDTSNGELSANAPSSITIRWENGATEEEKLERIITQKYLAIFPNGQEAWTEWRRTGYPRQIVVAENKTNSAVLIGNGYDLGGVRRLPYPRTEYEQNGENLHNAISQYLGGVDNAATKVWWDKKSK
glycan array binding signal (z-score) [1]: -0.312
glycan array binding signal (z-score) [2]: -0.697
glycan array binding signal (z-score) [3]: -0.526
glycan array binding signal (z-score) [4]: 2.77
glycan array binding signal (z-score) [5]: -0.724
glycan array binding signal (z-score) [6]: -0.813
glycan array binding signal (z-score) [7]: -0.839
glycan array binding signal (z-score) [8]: -0.824
glycan array binding signal (z-score) [9]: -0.269
glycan array binding signal (z-score) [10]: -0.823
glycan array binding signal (z-score) [11]: -0.816
glycan array binding signal (z-score) [12]: -0.691
glycan array binding signal (z-score) [13]: -0.848
glycan array binding signal (z-score) [14]: 0.629
glycan array binding signal (z-score) [15]: -0.376
glycan array binding signal (z-score) [16]: -0.833
glycan array binding signal (z-score) [17]: -0.817
glycan array binding signal (z-score) [18]: -0.299
glycan array binding signal (z-score) [19]: -0.809
glycan array binding signal (z-score) [20]: -0.857
glycan array binding signal (z-score) [21]: -0.838
glycan array binding signal (z-score) [22]: -0.838
glycan array binding signal (z-score) [23]: -0.851
glycan array binding signal (z-score) [24]: -0.855
glycan array binding signal (z-score) [25]: -0.427
glycan array binding signal (z-score) [26]: -0.837
glycan array binding signal (z-score) [27]: -0.844
glycan array binding signal (z-score) [28]: -0.822
glycan array binding signal (z-score) [29]: -0.85
glycan array binding signal (z-score) [30]: -0.48
glycan array binding signal (z-score) [31]: -0.79
glycan array binding signal (z-score) [32]: -0.816
glycan array binding signal (z-score) [33]: -0.439
glycan array binding signal (z-score) [34]: 0.908
glycan array binding signal (z-score) [35]: -0.485
glycan array binding signal (z-score) [36]: -0.853
glycan array binding signal (z-score) [37]: 0.604
glycan array binding signal (z-score) [38]: -0.713
glycan array binding signal (z-score) [39]: -0.569
glycan array binding signal (z-score) [40]: 1.64
glycan array binding signal (z-score) [41]: -0.317
glycan array binding signal (z-score) [42]: -0.497
glycan array binding signal (z-score) [43]: 0.274
glycan array binding signal (z-score) [44]: 0.697
glycan array binding signal (z-score) [45]: 0.21

From the supplement of paper PMC8728848
